Measured values reported in US12723279B2, “Long stokes shift chromenoquinoline dyes and uses in sequencing applications” (priority 2020, dated 2026).

Tests used:
PhiX [1] = test: Sequencing by synthesis on Illumina iSeq 100 instrument, glycine incorporation mix, palladium cleavage solution; settings: for Error Rate (%): PhiX
PhiX [2] = test: Sequencing by synthesis on Illumina iSeq 100 instrument, standard SBS cycle, ethanolamine incorporation mix; settings: 2×300 cycles; for Error Rate (%): PhiX

C=CCOCOC1C[C@H](n2cc(C#CCNC(=O)COC(COc3cccc(C(=O)NCCCCCNC(=O)CCCN4CCCc5cc6c(cc54)OCc4cc5cc(OC)c(OC)cc5[n+](C)c4-6)c3)OCC=C)c3c(N)ncnc32)O[C@@H]1COP(=O)(O)OP(=O)(O)OP(=O)(O)O (some centres unmarked) [ffA-AOM-AOL-I-4]
% Q30 (PhiX [1]; 150 cycles, Read 1): 92.84% | Phasing (PhiX [1]; 150 cycles, Read 1): 0.156 | Preptlasing (PhiX [1]; 150 cycles, Read 1): 0.059 | % Q30 (PhiX [1]; 150 cycles, Read 2): 91.16% | Phasing (PhiX [1]; 150 cycles, Read 2): 0.197 | Preptlasing (PhiX [1]; 150 cycles, Read 2): 0.07 | % Q30 (PhiX [1]; 300 cycles, Read 1): 93.05% | Phasing (PhiX [1]; 300 cycles, Read 1): 0.128 | Preptlasing (PhiX [1]; 300 cycles, Read 1): 0.064 | % Q30 (PhiX [1]; 300 cycles, Read 2): 90.9% | Phasing (PhiX [1]; 300 cycles, Read 2): 0.142 | Preptlasing (PhiX [1]; 300 cycles, Read 2): 0.053 | Error Rate (%) (PhiX [1]; 150 cycles, Read 1): 0.53% | Error Rate (%) (PhiX [1]; 150 cycles, Read 2): 0.53% | Error Rate (%) (PhiX [1]; 300 cycles, Read 1): 0.74% | Error Rate (%) (PhiX [1]; 300 cycles, Read 2): 0.65%

COc1cc2cc3c([n+](C)c2cc1OC)-c1cc2c(cc1OC3)N(CCCC(=O)NCCCCCNC(=O)c1cccc(OCC(N=[N+]=[N-])OCC(=O)NCC#Cc3cn([C@H]4CC(OCN=[N+]=[N-])[C@@H](COP(=O)(O)OP(=O)(O)OP(=O)(O)O)O4)c4ncnc(N)c34)c1)CCC2 (some centres unmarked) [ffA-sPA-LN3-I-4]
% Q30 (PhiX [2]; Read 1): 91.49% | % Q30 (Last 10 Cycles) (PhiX [2]; Read 1): 72.75% | Phasing (PhiX [2]; Read 1): 0.111 | Prephasing (PhiX [2]; Read 1): 0.129 | % Q30 (PhiX [2]; Read 2): 85.57% | % Q30 (Last 10 Cycles) (PhiX [2]; Read 2): 55.56% | Phasing (PhiX [2]; Read 2): 0.11 | Prephasing (PhiX [2]; Read 2): 0.141 | Error Rate (%) (PhiX [2]; Read 1): 0.81% | Error Rate (%) (PhiX [2]; Read 2): 1.01%
